This test has as its system BDF1 mice, P388 leukemia ip, median survival T/C. Kind of test: NCI In Vivo Anticancer Drug Screen. Data for tumor model P388 Leukemia (intraperitoneal) in B6D2F1 (BDF1) mice. The following applies: T/C endpoint: median survival time, higher T/C = longer survival. The method in brief:
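In tumour-bearing mice, survival after compound treatment is set against the vehicle group and given as a quotient.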

The mark [1] stands for this setting: dose: 100.0 mg/kg/injection, schedule: Q01DX005 (ip), vehicle: saline with Tween-80.
The mark [2] stands for this setting: dose: 50.0 mg/kg/injection, schedule: Q01DX009 (ip), vehicle: saline with Tween-80.
The mark [3] stands for this setting: dose: 100.0 mg/kg/injection, schedule: Q01DX009 (ip), vehicle: saline with Tween-80.
Setting [4] is: dose: 100.0 mg/kg/injection, schedule: Q04DX003 (ip), vehicle: water.
Where [5] appears, read: dose: 200.0 mg/kg/injection, schedule: Q01DX009 (ip), vehicle: saline with Tween-80.
The mark [6] stands for this setting: dose: 15.0 mg/kg/injection, schedule: Q01DX009 (ip), vehicle: saline with Tween-80.
The mark [7] stands for this setting: dose: 60.0 mg/kg/injection, schedule: Q01DX009 (ip), vehicle: saline with Tween-80.
The mark [8] stands for this setting: dose: 100.0 mg/kg/injection, schedule: Q01DX009 (ip), vehicle: saline.
[9] abbreviates: dose: 200.0 mg/kg/injection, schedule: Q01DX009 (ip), vehicle: saline.
Where [10] appears, read: dose: 400.0 mg/kg/injection, schedule: Q01DX009 (ip), vehicle: saline.
The mark [11] stands for this setting: dose: 50.0 mg/kg/injection, schedule: Q01DX009 (ip), vehicle: saline.
[12] abbreviates: dose: 25.0 mg/kg/injection, schedule: Q01DX009 (ip), vehicle: Klucel (hydroxypropylcellulose) (HPC).

The list is a part of this screen's results and no random one: it is rich in T/C values a quarter to a half above the control, in often repeated tests (any T/C) and in doses without a T/C. Further doses and runs are listed elsewhere. T/C gives the treated animals as a percentage of the vehicle group. Some doses have a count of surviving animals in place of a T/C: the source holds a T/C of zero for them, seemingly a mark for toxic or unscored doses. Some doses without a T/C left all or most animals alive at the check, yet need not have been tolerated: survival well below the control is almost never listed, so the zero probably covers shortened survival too. Counts of survivors are from the toxicity check (mostly the fifth day) where no day follows; animals may have died later. Schedules are NCI's codes, read here as Q, the interval in days (D) or hours (H), X, the number of doses. Some structures stand for samples that the source files as different forms (salt, stereo form or complex); doses refer to the form tested. For survival time, this PubChem deposit counts one and a half times the control or more as active, and values a quarter to a half above the control carry no call in these data; other NCI protocols may use other cut-offs. Some T/C values are followed by the survivors on the day toxicity was checked, most often the fifth; where none is given, no animal had died by that day. Some entries were tested several times; their values stand side by side, smallest first.

As for `Cc1cc(C)[n+](C)c2cc3ccccc3cc12`, the T/C (dose: 25.0 mg/kg/injection, schedule: Q01DX005 (ip), vehicle: saline with Tween-80) is 126 % of control. Under setting [1], the survivor count was 2 of 5.

On to `CCCCOC(=O)c1ccc(OCCOc2ccc(C(C)(C)CC(C)(C)C)cc2)c(NC(=O)CC(=O)c2cccc(N)c2)c1`, for which, for the setting “dose: 25.0 mg/kg/injection, schedule: Q04DX003 (ip), vehicle: saline sonified”, the survivor count was 6 of 6.

On to `COc1cc(/C=N/NC(=O)COCC(=O)N/N=C/c2ccc(O)cc2OC)ccc1O`, for which the survivor count was 4 of 5 (dose: 50.0 mg/kg/injection, schedule: Q01DX005 (ip), vehicle: saline with Tween-80) and 5 of 5 under setting [1].

On to `COC1CCC(C=O)C(C#N)(C#N)C1(C#N)C#N` (configuration not stated), for which the survivor count (dose: 200.0 mg/kg/injection, schedule: Q01DX001 (ip), vehicle: saline with Tween-80) is 1 of 6.

Consider `BrCC[N+]12CC[N+](CCBr)(CC1)C2`, for which the T/C was 134 and 146 % of control [5 of 6 alive] under setting [2]; 131 % of control under setting [4]; 140 % of control (dose: 200.0 mg/kg/injection, schedule: Q04DX003 (ip), vehicle: water). Besides, the survivor count by setting is: under setting [3], 3 of 6; under setting [5], 1 of 6.

Turning to `O=C(Nc1cc(Cl)ccc1C(=O)O)c1cccc(C[n+]2ccccc2)c1`, the survivor count (dose: 200.0 mg/kg/injection, schedule: Q01DX005 (ip), vehicle: saline with Tween-80) is on record as 4 of 5.

As to `Cc1cccc(C)c1NC(=S)N(C)C`, the survivor count (dose: 200.0 mg/kg/injection, schedule: Q04DX003 (ip), vehicle: saline) is listed as 5 of 6 and the survivor count (dose: 400.0 mg/kg/injection, schedule: Q04DX003 (ip), vehicle: saline) is 0 of 6.

As for `COc1cc(OC)c(C(=O)CCc2ccccc2)c(O)c1Cc1ccccc1O`, under “dose: 1.0 mg/kg/injection, schedule: Q01DX009 (ip), vehicle: saline”, the T/C was 132 % of control. Also, where the note is “dose: 9.0 mg/kg/injection, schedule: Q01DX009 (ip), vehicle: saline with Tween-80”, the survivor count is given as 4 of 4.

Regarding `COc1ccc2[nH]c3c(c2c1)CCNC3CC(C)CCC=C(C)C` (configuration not stated), the survivor count under setting [5] was 1 of 6.

As for `CC(=O)Nc1cscc1NC(C)=O`, the T/C (dose: 25.0 mg/kg/injection, schedule: Q01DX009 (ip), vehicle: saline with Tween-80) is 126 % of control and the T/C under setting [5] is 128 % of control.

As for `O=[N+]([O-])c1cc2no[n+]([O-])c2cc1N1CCCCC1`, the T/C was 126 % of control under setting [6] and 138 % of control (dose: 30.0 mg/kg/injection, schedule: Q01DX009 (ip), vehicle: saline with Tween-80). The survivor count under setting [7] is listed as 5 of 7.

In the case of `CN1CCN(C2=Nc3ccccc3Cc3ccccc32)CC1`, the survivor count is on record as 5 of 6 under setting [3] and 1 of 6 under setting [5].

In the case of `CCOC(=O)c1cnc(N(C)C)[nH]c1=O`, the survivor count is listed as 3 of 3 under setting [8], 3 of 3 under setting [9] and 0 of 3 under setting [10].

As for `CCCCNC(C)(C)CS`, the survivor count is recorded as 1 of 6 under setting [11], 3 of 6 under setting [8] and 0 of 6 under setting [9].

Turning to `Cc1ccc(S(=O)(=O)N/N=C/C(Br)=C(/Br)C(=O)O)cc1`, the T/C under setting [12] was 137 % of control. For the same molecule, the survivor count (dose: 200.0 mg/kg/injection, schedule: Q01DX009 (ip), vehicle: Klucel (hydroxypropylcellulose) (HPC)) is recorded as 4 of 6.

Take `CCOC(=O)C1CC[N+](=c2cc(-c3ccc(Cl)cc3)ss2)CC1` (configuration not stated): the T/C under setting [9] is 126 % of control [5 of 6 alive]. For the same molecule, under setting [10], the survivor count was 2 of 6.

Take `C=C(C)C(=O)O[C@H]1C[C@@]2(C)OC(=CC2=O)/C(CO)=C\[C@H]2OC(=O)C(=C)[C@H]12`: the survivor count reads like this: (dose: 12.5 mg/kg/injection, schedule: Q01DX009 (ip), vehicle: Klucel (hydroxypropylcellulose) (HPC)) 6 of 6; under setting [12], 1 of 6; (dose: 50.0 mg/kg/injection, schedule: Q01DX009 (ip), vehicle: Klucel (hydroxypropylcellulose) (HPC)) 0 of 6.

With `CC[N+](CC)(CC)CCCC[N+](CC)(CC)CC`, the survivor count by setting is: (dose: 75.0 mg/kg/injection, schedule: Q01DX009 (ip), vehicle: water) 2 of 6; under setting [4], 3 of 6.

Take `CCOC(=O)CC(C)C(Br)(C(=O)OCC)C(=O)OCC` (configuration not stated): the T/C (dose: 200.0 mg/kg/injection, schedule: Q01DX009 (ip), vehicle: water) was 130 % of control [5 of 6 alive]. The survivor count reads like this: (dose: 300.0 mg/kg/injection, schedule: Q01DX009 (ip), vehicle: water) 2 of 6; (dose: 400.0 mg/kg/injection, schedule: Q04DX003 (ip), vehicle: water) 2 of 6.

As for `CCCCN=C(N)c1ccc(NC(=O)c2ccc(C(=O)Nc3ccc(C(N)=NCCCC)cc3)cc2)cc1`, the T/C reads like this: under setting [6], 135 % of control; (dose: 20.0 mg/kg/injection, schedule: Q04DX003 (ip), vehicle: saline with Tween-80) 145 % of control; (dose: 26.0 mg/kg/injection, schedule: Q04DX003 (ip), vehicle: saline with Tween-80) 141 % of control; (dose: 90.0 mg/kg/injection, schedule: Q04DX003 (ip), vehicle: saline with Tween-80) 131 % of control. Moreover, the survivor count under setting [7] is 6 of 6.

On to `CN1CCN(c2ccc3nnc(Cl)n3n2)CC1`, for which the survivor count was 6 of 7 (dose: 12.5 mg/kg/injection, schedule: Q01DX009 (ip), vehicle: saline); 7 of 7 (dose: 25.0 mg/kg/injection, schedule: Q01DX009 (ip), vehicle: saline); 7 of 7 under setting [11].

As to `c1ccc(C2OC2c2ccccc2)cc1` (configuration not stated), where the note is “dose: 200.0 mg/kg/injection, schedule: Q04DX003 (ip), vehicle: Klucel (hydroxypropylcellulose) (HPC)”, the survivor count is listed as 5 of 6.

For the molecule `CO[C@H]1C[C@H](O[C@H]2CC[C@@]3(C)[C@H](CC[C@@H]4[C@@H]3CC[C@]3(C)[C@@H](C5=CC(=O)OC5)CC[C@]43O)C2)O[C@H](C)[C@H]1O`, where the note is “dose: 14.0 mg/kg/injection, schedule: Q01DX009 (ip), vehicle: saline with Tween-80”, the survivor count is recorded as 3 of 4.

Turning to `CCN1CC[N+](C)(CC)Cc2ccccc21` (configuration not stated), the survivor count (dose: 50.0 mg/kg/injection, schedule: Q04DX003 (ip), vehicle: saline with Tween-80) is 6 of 6.

For the molecule `CC1=CC(=O)NC1O` (configuration not stated), the survivor count (dose: 5.0 mg/kg/injection, schedule: Q01DX010 (ip), vehicle: saline) is given as 4 of 4.

As for `CS(=O)(=O)c1nc(N)nc2nc[nH]c12`, the survivor count under setting [10] is given as 1 of 6.

As for `COC(C/C=C\C=C\CC/C=C/CC(C)/C=C/C(=C\C(=O)O)CC(=O)O)/C(C)=C\C=C(/C)C(=O)O` (configuration not stated), for the setting “dose: 4.0 mg/kg/injection, schedule: Q04DX003 (ip), vehicle: saline”, the T/C was 125 % of control.

For the molecule `Nc1ncc([N+](=O)[O-])cn1`, the survivor count (dose: 400.0 mg/kg/injection, schedule: Q01DX009 (ip), vehicle: Klucel (hydroxypropylcellulose) (HPC)) was 2 of 6.

For the molecule `CNC(C)(C)C(SS)c1ccc(Cl)cc1` (configuration not stated), the survivor count under setting [3] is 0 of 6 and the survivor count (dose: 100.0 mg/kg/injection, schedule: Q04DX003 (ip), vehicle: saline with Tween-80) was 5 of 6.

For `CC(N)COCc1ccccc1` (configuration not stated), where the note is “dose: 100.0 mg/kg/injection, schedule: Q04DX003 (ip), vehicle: saline”, the survivor count was 2 of 6.

In the case of `[N-]=[N+]=NC(=O)c1ccccn1`, the T/C is 137 % of control under setting [2] and 135 % of control [4 of 6 alive] under setting [3].

(Values after PubChem BioAssay AID328 (DTP/NCI, 2004).)
